Laboratory results from publication PMC6595003, “Insights into real-time chemical processes in a calcium sensor protein-directed dynamic library” (Nature Communications, 2019).

Test: Parallel artificial membrane permeability assay (PAMPA-BBB)
Type: in vitro ADME
Settings: source data
Excerpt: The PAMPA methodology is a high-throughput technique to predict passive permeability through biological membranes that employs a brain lipid porcine as membrane. […]
From this equation and following the pattern established in the literature for BBB permeation prediction2 we could classify compounds as CNS + when they present a permeability > 4.50 x 10-6 cm s-1. Source data are provided as a Source Data file. […]
Parallel artificial membrane permeability assays. Prediction of the brain penetration was evaluated using a parallel artificial membrane permeability assay (PAMPA).4 Ten commercial drugs, phosphate buffer saline solution at pH 7.4 (PBS). DMSO and dodecane were purchased from Sigma, Across organics, Aldrich and Fluka. The porcine […]
plate was a 96-well filtrate plate (Multiscreen® IP Sterile Plate PDVF membrane, pore […]
MAIPS4510) and the acceptor plate was an indented 96-well plate (Multiscreen®, catalog no. MAMCS9610) both from Millipore. Filter PDVF […]
membrane units (diameter 30 mm, pore size 0.45 µm) from Symta were used to filter the samples. A 96-well plate UV reader (Thermoscientific, Multiskan spectrum) was used for the UV measurements.

Pe (10-6 cm s-1) Experimental 1: 1.1 10-6 cm s-1
Pe (10-6 cm s-1) Experimental 2: 0.56 10-6 cm s-1
Pe (10-6 cm s-1) Experimental 3: 1.60 10-6 cm s-1
SMILES: CC(C)NCC(O)COc1ccc(CC(N)=O)cc1 (stereo not drawn) [Atenolol]
